The full ranking holds about 33,000 sequences; the median of “E-score (-0.5 to 0.5)” is about -8e-05, and the highest 2% start at about 0.23. Some of the results follow.
molecular target: T1, Nrg2 (UniProt P38082); assay: PBM E-score (8-mer binding enrichment) (E-score (-0.5 to 0.5)); higher = stronger / more preferred TF binding; settings: protein concentration: 100 nM; construct: GST-full length
T1 sequence: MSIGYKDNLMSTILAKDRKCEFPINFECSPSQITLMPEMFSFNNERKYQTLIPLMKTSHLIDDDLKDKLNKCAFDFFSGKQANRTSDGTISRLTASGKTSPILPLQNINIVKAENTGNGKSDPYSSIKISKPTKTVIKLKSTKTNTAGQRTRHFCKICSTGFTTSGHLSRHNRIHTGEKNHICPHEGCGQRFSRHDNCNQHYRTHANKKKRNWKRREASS
Outline: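 Using PURExpress in vitro transcription/translation, GST-tagged yeast transcription factors were made in full-length or DNA-binding-domain form. These were applied at about 100-200 nM to double-stranded universal all-10-mer Agilent arrays, and bound protein was detected with fluorescent anti-GST. Scans were normalised with masliner before the Universal PBM Analysis Suite assigned E-scores to ungapped eight-base words pooled with their reverse complements.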

| Sequence | PBM E-score |
| --- | --- |
| ATTCAGAG | 0.132 |
| CCGAACTA | 0.118 |
| CACGAGAC | -0.0565 |
| GTCGGTCA | -0.0854 |
| CGGGTCAC | -0.00145 |
| AAACGGTT | -0.109 |
| ACGCCTAG | -0.222 |
| AGAATCGA | 0.0175 |
| CGTATCAG | 0.0306 |
| CTTTTAAC | -0.0106 |
| CAACTAGC | 0.188 |
| GTGCGTCA | -0.0637 |
| GGTACGCA | 0.0769 |
| GTGCCGTA | 0.0726 |
| CGGACAGA | 0.0387 |
| CCCGGACA | 0.0765 |
| ACACGCGA | 0.0601 |
| TAACGTAA | 0.0506 |
| ATCCAGCC | -0.106 |
| CTTATGTA | -0.14 |
| TAGATTCA | -0.0516 |
| CCCTGCCG | 0.145 |
| GAGGAGGA | -0.265 |
| AATTATTG | 0.139 |
| ACCGGTAA | -0.22 |

5 records drawn at random from those above, as already listed:

| Sequence | PBM E-score |
| --- | --- |
| GTGCCGTA | 0.0726 |
| TAACGTAA | 0.0506 |
| CTTATGTA | -0.14 |
| CCCGGACA | 0.0765 |
| CAACTAGC | 0.188 |

Additional results follow:

| Sequence | PBM E-score |
| --- | --- |
| GTGTCGTA | 0.0777 |
| AGCCAATG | -0.13 |
| ACCGTTAG | -0.124 |
| CCTATTAA | 0.109 |
| AATATGAC | -0.0422 |
| CAGATAAC | 0.144 |
| ACTCGTGG | 0.00466 |
| CTCTCAGA | -0.143 |
| CCCGCATA | 0.168 |
| GCCGTACA | 0.0541 |
| AGAGAGGA | -0.0714 |
| CTTAAGCA | -0.273 |
| ATTTCTGC | 0.189 |
| CCACGGGG | -0.232 |
| GTGAGAAA | 0.0881 |
| CCGCCAAC | -0.126 |
| AAAGAGTT | -0.211 |
| AAACAACC | 0.0768 |
| GTTAGAAA | -0.127 |
| GTGCACGA | -0.0234 |
| CCTTCTCG | -0.172 |
| CAGAGAGG | -0.162 |
| GGAGTGAC | 0.102 |
| ATGATATG | 0.228 |
| CAGTAGTC | -0.179 |

| Sequence | PBM E-score |
| --- | --- |
| GTCGAACA | 0.198 |
| ACTTTGAA | -0.134 |
| CACCGCTC | 0.11 |
| ATAAGGGC | 0.17 |
| ATCACCAC | 0.13 |
| AGGCAAAC | -0.0365 |
| ACTTAGCG | 0.0674 |
| CTGATATC | 0.0442 |
| AATCTAAA | -0.0927 |
| AGATGAGA | 0.148 |
| ACCCTGAT | 0.249 |
| ACAGAACT | 0.0582 |
| AACGATGG | -0.124 |
| ACCATGAC | 0.0718 |
| AAGTCTAG | -0.282 |
| ATTTGACC | 0.0698 |
| ACACAGTA | -0.103 |
| AAGACAAC | 0.235 |
| GCACCTGA | 0.0367 |
| GCAAGGAC | 0.0953 |
| GCGGAAAA | 0.0533 |
| GACTGTTA | -0.0515 |
| TCTGCACA | -0.0685 |
| AAGCAGGC | -0.232 |
| CTGTTCCA | -0.0207 |

For convenience, part of the list above:

| Sequence | PBM E-score |
| --- | --- |
| GTCGAACA | 0.198 |
| ACTTTGAA | -0.134 |
| CACCGCTC | 0.11 |
| ATAAGGGC | 0.17 |

The results go on.

| Sequence | PBM E-score |
| --- | --- |
| TCGGCACA | -0.0415 |
| GACGGCCC | -0.0825 |
| ACCCGGCT | -0.116 |
| ATCATCCG | -0.0548 |
| CCGAGTTA | -0.0272 |
| CTTCGTGA | 0.0235 |
| ATGGGTGC | -0.0107 |
| AGGAGTCC | -0.207 |
| AGGATCTC | -0.16 |
| AAACACTC | 0.149 |
| AGCACACA | -0.0461 |
| CAACCGAC | 0.17 |
| CTGCACAA | 0.00758 |
| CCACCATA | 0.0773 |
| ACGCTCTG | -0.155 |
| ATTTGATG | 0.0343 |
| GTCTCCCA | -0.178 |
| CGAAGATA | 0.216 |
| ACGTTAAC | 0.105 |
| ACATTCAC | 0.0832 |
| CATCCTTA | 0.00611 |
| AGAAGGGG | -0.15 |
| CCGCCTCA | -0.268 |
| CCTGCGCG | 0.125 |
| CTCTTGGA | -0.0343 |

A second format for some results above:
CCGAGTTA
  PBM E-score = -0.0272
CTTCGTGA
  PBM E-score = 0.0235

(continued)

| Sequence | PBM E-score |
| --- | --- |
| CCAGGGAG | -0.107 |
| ATTGACTA | 0.00845 |
| GGCCGTCA | -0.12 |
| GAAATCTC | -0.102 |
| ACTGCTCC | 0.0162 |
| AGTCGGGC | -0.0859 |
| GGAGCTGA | -0.155 |
| CTTAAAAA | -0.057 |
| CTTCCTCC | -0.301 |
| AGGTTCAG | 0.0524 |
| AACGCGTG | 0.0072 |
| CTAAGCTA | 0.112 |
| AAGTCACC | -0.0997 |
| AGAATTAT | 0.0554 |
| ACAGCTGA | 0.0892 |
| ACGTCGGA | 0.0488 |
| CGCTCCCG | -0.218 |
| CTGTGCCA | -0.0838 |
| CGCGCCGC | 0.0975 |
| CATGGACG | -0.0852 |
| ACCAACCC | -0.0516 |
| CTGAACAA | 0.079 |
| CTTAGATC | -0.0835 |
| CGAAATCG | 0.119 |
| AAGGGTAA | 0.0761 |

| Sequence | PBM E-score |
| --- | --- |
| ACACGAGG | -0.0912 |
| CCGAACGC | 0.0363 |
| CCAGAGGA | -0.133 |
| AAATCAGG | 0.0425 |
| GATGGTCA | 0.0733 |
| TGCAAGAA | 0.102 |
| CCTCCGAG | -0.156 |
| GGATCGGA | -0.175 |
| GAATGGAA | 0.154 |
| CGTGTAGA | 0.0517 |
| GGGATCCA | 0.0432 |
| CACGTCAC | -8e-05 |
| ATATAACG | 0.243 |
| CGTACGGC | -0.152 |
| TGCGAGCA | 0.123 |
| CAATATAA | 0.212 |
| ATTGAACA | -0.0876 |
| ATACCCAG | 0.0171 |
| CCCGAGAA | 0.164 |
| AAGAGTCG | 0.0232 |
| AGGTGACG | -0.154 |
| ACGGCTAG | -0.271 |
| AACCCATT | 0.00038 |
| CCTGATGC | 0.0691 |
| GGTGACTA | -0.0471 |

| Sequence | PBM E-score |
| --- | --- |
| ACTGTATG | -0.0431 |
| CGGCCAGA | -0.0298 |
| CCGGCACG | -0.183 |
| GGGTCCCA | 0.137 |
| AAAGCTAG | -0.0627 |
| CTCGAGGC | 0.192 |
| CGGCTAAG | 0.0639 |
| CCTCTATA | -0.141 |
| ACGAAAAA | 0.00232 |
| CCCCGCAG | -0.0231 |
| CGCGCGTC | 0.262 |
| CGCAGCGA | -0.0266 |
| ATATGAGG | 0.0351 |
| ATTGTCGC | 0.136 |
| GAAACGGA | 0.0917 |
| AAGCAGTG | -0.0406 |
| GGCCACAA | 0.0535 |
| CGAAGCCC | -0.108 |
| CGCAGGCC | 0.0329 |
| TGGTATAA | 0.105 |
| AGATATCA | 0.174 |
| GAACTTCC | 0.032 |
| CATAGCGC | 0.146 |
| CATAACGC | -0.0304 |
| TAAGCTCA | -0.119 |

| Sequence | PBM E-score |
| --- | --- |
| AAGCTCAG | -0.104 |
| AAACGAAA | 0.206 |
| CCACACGA | 0.034 |
| CGTTTGAG | -0.111 |
| TAGGAACA | -0.0468 |
| GTTCCCCA | -0.0328 |
| AACGCGTT | 0.115 |
| GATGTGAA | 0.147 |
| AAACTTCC | -0.139 |
| GATATACC | 0.162 |
| CCATTCCA | -0.0852 |
| CTGGGAGC | -0.244 |
| AGGAGGGC | -0.161 |
| GGCACCGA | -0.128 |
| CTGTGGGC | -0.0967 |
| CGGAGACA | 0.0791 |
| CCATACCC | -0.178 |
| CAACAGAG | 0.0505 |
| AAAACATC | 0.0143 |
| AACGCGTC | 0.0607 |
| GCGAAATA | 0.0146 |
| GAAGCAAC | 0.119 |
| CGCGGTGA | 0.0503 |
| CCCCCGGA | -0.299 |
| ACCCTTAT | 0.28 |

| Sequence | PBM E-score |
| --- | --- |
| AAAATTCG | 0.224 |
| AATCGCGC | 0.23 |
| AGCTCACC | -0.118 |
| ACAACCAT | 0.24 |
| AGTCCGAG | 0.154 |
| AGCACTGG | -0.148 |
| TACTACTA | 0.179 |
| GATCCAAA | 0.284 |
| CCACTGAG | -0.153 |
| ACCGCATC | 0.159 |
| AGATCACC | -0.00667 |
| CGCGATTC | 0.173 |
| AACATTAA | 0.0923 |
| AGTACAGA | 0.115 |
| TACCGGGA | 0.0107 |
| CTCATCTA | -0.0918 |
| ACACTCGT | 0.015 |
| CGAATCAG | 0.122 |
| AAGAGGAG | -0.174 |

Source: the supplement of paper PMC3334620
